Experimental data taken from patent US20200055897A1, “MODIFIED PEPTOIDS” (Technion Research & Development Foundation Limited, priority 2017, published 2020).
Some of these results come from one statement about several compounds together. Non-standard residues stand in square brackets, D forms with d. Residues, ends and D or L forms follow the SMILES beside them. *: point of attachment. N(1S-cyclohexylethyl)Gly = C[C@H](NCC(=O)O)C1CCCCC1; Gly(N-CH2CH2C6H4-4Cl) = O=C(O)CNCCc1ccc(Cl)cc1; NMeGly(N-(2-F-benzyl)) = CN(CC(=O)*)Cc1ccccc1F; Nphe = O=C(O)CNCc1ccccc1

Assay: General method for water solubility test (gradual addition of water to 1 mg peptoid until clear)
Format: physicochemical
Method: 1 mg peptoid was placed in an Eppendorf container and water was added gradually (e.g., […] per addition) until a clear solution was obtained. The solubility test was repeated three times and average values are presented. The limit of the test was typically 2.0×10^2 mg/liter (i.e., 1 mg per 5 ml).
Water solubility tests were carried out by a gradual addition of 5 μl distilled water to 1 mg peptoid until a clear solution was obtained. This assay was repeated three times and results were averaged.

Water solubility (in words), none of P9-P11 was water-soluble:
C[C@H](NCC(=O)N(CC(=O)N(CC(=O)N(CC(=O)N(CC(N)=O)[C@@H](C)C1CCCCC1)[C@@H](C)C1CCCCC1)[C@@H](C)C1CCCCC1)[C@@H](C)C1CCCCC1)C1CCCCC1 [Peptoid P10, (Nsch)5, reference compound]
C[C@H](NCC(=O)N(CC(=O)N(CC(=O)N(CC(N)=O)[C@@H](C)c1cccc2ccccc12)[C@@H](C)c1cccc2ccccc12)[C@@H](C)c1cccc2ccccc12)c1cccc2ccccc12 [Peptoid P9, (Ns1npe)4, reference compound]
C[C@@H](C1CCCCC1)N(CC(=O)N(CCc1ccc(Cl)cc1)CC(=O)N(CC(=O)N(CC(=O)N(CC(N)=O)Cc1ccccc1)Cc1ccccc1)[C@@H](C)C1CCCCC1)C(=O)CN(C)Cc1ccccc1F [Peptoid P11, (Npm)2-Nsch-Ncpe-Nsch-Nfpm, reference compound] ({NMeGly(N-(2-F-benzyl))}-[N(1S-cyclohexylethyl)Gly][Gly(N-CH2CH2C6H4-4Cl)][N(1S-cyclohexylethyl)Gly][Nphe][Nphe]-NH2)
